Experimental data taken from paper PMC13299607.
These are yes or no findings as the source states them, for the method shown. Binding seen in cells or lysates may run through a third protein. Some binding calls cover weakened binding; strength is not graded here.

Amino acid sequences for entries named in this document (tags omitted).
UniProt Q96KS0: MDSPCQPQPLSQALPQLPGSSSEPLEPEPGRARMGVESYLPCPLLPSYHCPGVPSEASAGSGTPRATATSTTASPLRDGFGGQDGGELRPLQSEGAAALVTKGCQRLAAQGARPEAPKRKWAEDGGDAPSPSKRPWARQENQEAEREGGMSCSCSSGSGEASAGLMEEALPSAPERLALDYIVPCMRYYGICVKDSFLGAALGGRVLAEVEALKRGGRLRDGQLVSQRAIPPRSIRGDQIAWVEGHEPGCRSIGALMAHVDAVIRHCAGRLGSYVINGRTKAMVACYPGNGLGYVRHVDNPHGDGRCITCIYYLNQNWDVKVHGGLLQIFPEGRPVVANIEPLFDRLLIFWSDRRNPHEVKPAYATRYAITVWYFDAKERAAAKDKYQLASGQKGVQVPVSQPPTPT

Target: EGFP-PHD1 (UniProt Q96KS0)
Assay: co-IP; GFP-Trap magnetic agarose beads on lysate of asynchronous HeLa cells 48 hr after transfection with EGFP-PHD1; lysis in 50 mM Tris pH 7.5, 150 mM NaCl, 1% NP40, 0.5% deoxycholate, 0.1% SDS; 2 hr at 4°C; western blot

binding: binds
B1: endogenous RepoMan (CDCA2) (protein, UniProt Q69YH5 1-1023)
chain: MDANSKDKPPETKESAMNNAGNASFILGTGKIVTPQKHAELPPNPCTPDTFKSPLNFSTVTVEQLGITPESFVRNSAGKSSSYLKKCRRRSAVGARGSPETNHLIRFIARQQNIKNARKSPLAQDSPSQGSPALYRNVNTLRERISAFQSAFHSIKENEKMTGCLEFSEAGKESEMTDLTRKEGLSACQQSGFPAVLSSKRRRISYQRDSDENLTDAEGKVIGLQIFNIDTDRACAVETSVDLSEISSKLGSTQSGFLVEESLPLSELTETSNALKVADCVVGKGSSDAVSPDTFTAEVSSDAVPDVRSPATPACRRDLPTPKTFVLRSVLKKPSVKMCLESLQEHCNNLYDDDGTHPSLISNLPNCCKEKEAEDEENFEAPAFLNMRKRKRVTFGEDLSPEVFDESLPANTPLRKGGTPVCKKDFSGLSSLLLEQSPVPEPLPQPDFDDKGENLENIEPLQVSFAVLSSPNKSSISETLSGTDTFSSSNNHEKISSPKVGRITRTSNRRNQLVSVVEESVCNLLNTEVQPCKEKKINRRKSQETKCTKRALPKKSQVLKSCRKKKGKGKKSVQKSLYGERDIASKKPLLSPIPELPEVPEMTPSIPSIRRLGSGYFSSNGKLEEVKTPKNPVKRKDLLRHDPDLHMHQGYDKYDVSEFCSYIKSSSSLGNATSDEDPNTNIMNINENKNIPKAKNKSESENEPKAGTDSPVSCASVTEERVASDSPKPALTLQQGQEFSAGGQNAENLCQFFKISPDLNIKCERKDDFLGAAEGKLQCNRLMPNSQKDCHCLGDVLIENTKESKSQSEDLGRKPMESSSVVSCRDRKDRRRSMCYSDGRSLHLEKNGNHTPSSSVGSSVEISLENSELFKDLSDAIEQTFQRRNSETKVRRSTRLQKDLENEGLVWISLPLPSTSQKAKRRTICTFDSSGFESMSPIKETVSSRQKPQMAPPVSDPENSQGPAAGSSDEPGKRRKSFCISTLANTKATSQFKGYRRRSSLNGKGESSLTALERIEHNGERKQ
